The list shows a part of the results. Further columns of the screen follow, without active or inactive calls. The list favours compounds with an active or inconclusive main result. Words in brackets tell the shape of the fitted curve; partial curves, single points and poor fits give uncertain potencies.
Experiment: qHTS Assay for Lipid Storage Modulators in Drosophila S3 Cells;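 for cell number change: cells counted by Cell Tracker Red CMTPX staining in the red channel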
Conditions: BODIPY lipid droplet fluorescence, 18-24 h; for cell number change: measured here: cell count max response, cells fed with added oleic acid
Outline: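 Drosophila S3 cells got compounds at several concentrations plus oleic acid (400 uM solution). Laser-scanning cytometry with 488 nm excitation read lipid droplets at 500-530 nm and cells at 575-640 nm. Percent activity was relative to 20 uM Triacsin C.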

[1] = measured here: cell number channel AC50, cells fed with added oleic acid
[2] = measured here: lipid fluorescence (Fed channel) AC50, cells fed with added oleic acid

Row | SMILES | AC50 [1] | AC50 [2] | cell number change [%]
1 | COc1ccc(C(=O)Nc2ccc(S(=O)(=O)Nc3onc(C)c3C)cc2)cc1 | 6.51 µM [falling, single point] | – | –
2 | COC(=O)COc1nsnc1N1CCOCC1 | – | 2.91 µM [falling, full curve] | –
3 | COC(C[C@H](O)C[C@@H](O)[C@H](C)OCc1ccccc1)OC | – | 0.013 µM [falling, full curve, poor fit] | 0.327
4 | Cc1nc2scc(-c3ccc(Cl)cc3)c2c(=O)o1 | 1.3 µM [rising, partial curve] | 0.82 µM [rising, full curve, poor fit] | –
5 | COC(=O)c1cc2sc(Cl)cc2n1CC(=O)Nc1cccc(SC)c1 | – | 29.1 µM [falling, single point] | -1.78
6 | NS(=O)(=O)c1cccc(NC(=O)COC(=O)Cn2cc(C(F)(F)F)ccc2=O)c1 | – | 32.6 µM [rising, single point] | 12.2
7 | CCc1ccc(NC(=O)CSc2nc3ccsc3c(=O)n2CCC(=O)O)cc1 | – | – | -2.09
8 | CS(=O)(=O)N1N=C(c2ccco2)CC1c1ccccc1Cl (stereo not drawn) | – | – | 15.8
9 | O=C(COc1ccc2c(c1)oc(=O)c1ccccc12)NCC1CCC(C(=O)O)CC1 (stereo not drawn) | – | 0.58 µM [rising, single point] | -0.616
10 | CC(=O)OCP(C)(=O)COC(C)=O | – | 5.8 µM [falling, full curve] | -19.9
11 | Cc1ccc(Nc2ccc(C(N)=O)cc2[N+](=O)[O-])cc1C | 29.1 µM [falling, single point] | – | -96.8
12 | O=C(C1=C(O)C(=O)N(CC2CCCO2)C1c1ccc(Cl)cc1Cl)c1ccco1 (stereo not drawn) | – | – | 5.56
13 | Cc1cccc(N(CC(=O)N/N=C/c2ccccc2C(=O)O)S(C)(=O)=O)c1C | 16.4 µM [rising, single point] | 18.4 µM [rising, single point] | 34.9
14 | CCn1cc(C(=O)NC2CCCCC2)c(=O)c2cc(S(=O)(=O)N(C)C)ccc21 | – | 6.51 µM [falling, single point] | -17.3
15 | CCOC(=O)C(C)Sc1nc2ccccc2c(=O)n1CC (stereo not drawn) | – | 0.731 µM [falling, full curve] | -8.98
16 | CC(C)(C)CC(=O)Nc1nnc(-c2cccs2)s1 | 3.66 µM [rising, single point] | – | 14
17 | O=C(c1cccs1)N1CCN(C(=O)c2ccco2)c2ccccc2C1 | – | 16.4 µM [rising, single point] | 18.5
18 | CN1C(=O)/C(=C/c2ccccc2Cl)Sc2ccc(C(=O)N3CCCC3)cc21 | – | – | -19.8
19 | Cc1[nH]c(=O)[nH]c(=O)c1S(=O)(=O)N1CCN(c2ccccc2F)CC1 | 3.66 µM [falling, full curve] | 0.164 µM [falling, full curve] | -31.3
20 | Cc1cc(C)cc(Nc2nc3c(S(=O)(=O)c4ccccc4)nnn3c3ccccc23)c1 | – | 0.731 µM [rising, single point] | –

Quoted from above, compounds 8–11
Row | SMILES | AC50 [1] | AC50 [2] | cell number change [%]
8 | CS(=O)(=O)N1N=C(c2ccco2)CC1c1ccccc1Cl (stereo not drawn) | – | – | 15.8
9 | O=C(COc1ccc2c(c1)oc(=O)c1ccccc12)NCC1CCC(C(=O)O)CC1 (stereo not drawn) | – | 0.58 µM [rising, single point] | -0.616
10 | CC(=O)OCP(C)(=O)COC(C)=O | – | 5.8 µM [falling, full curve] | -19.9
11 | Cc1ccc(Nc2ccc(C(N)=O)cc2[N+](=O)[O-])cc1C | 29.1 µM [falling, single point] | – | -96.8

Next records follow:

Row | SMILES | AC50 [1] | AC50 [2] | cell number change [%]
21 | COc1cccc(C2c3[nH]c4ccccc4c3C[C@H]3C(=O)N(c4ccccc4C(=O)N4CCC[C@H]4C(=O)O)C(=O)N23)c1 (stereo partly drawn) | – | 29.1 µM [rising, single point] | 6.98
22 | CCn1cc(C(=O)NCCCN(C)c2ccccc2)c(=O)c2cc(S(=O)(=O)N(C)C)ccc21 | – | 23.1 µM [falling, single point] | -17.9
23 | COc1ccc(OC)c(NS(=O)(=O)c2ccc(NC(=O)C3COc4ccccc4O3)cc2)c1 (stereo not drawn) | 0.58 µM [rising, full curve, poor fit] | 0.116 µM [rising, full curve, poor fit] | -2.79
24 | CCOc1ccc(NC(=O)c2c(NC(=O)CN3CCN(C)CC3)sc3c2CCC3)cc1 | – | 0.116 µM [rising, full curve, poor fit] | 5.82
25 | COc1ccc(NC(=O)COC(=O)CNS(=O)(=O)c2ccccc2)cc1OC | – | – | -22.7
26 | O=C(Nc1sc2c(c1C(=O)NCc1cccnc1)CCCC2)c1ccco1 | 1.46 µM [rising, partial curve] | 1.64 µM [rising, partial curve] | –
27 | CC(C)(C)NS(=O)(=O)c1ccc(NC(=O)C(Sc2ccccc2)c2ccccc2)cc1 (stereo not drawn) | – | – | -14.4
28 | O=C(CSc1nccc(=O)[nH]1)NC1CCCC1 | – | 0.116 µM [falling, single point] | -3.85
29 | Cc1ccc(N=c2c([N+](=O)[O-])nn(-c3ccc4c(c3)OCCO4)n2O)cc1F | 0.366 µM [rising, full curve] | – | 49.7
30 | O=C(CNC(=O)c1ccccc1Cl)N/N=C/c1ccc([N+](=O)[O-])s1 | – | 20.6 µM [falling, single point] | -21.2
31 | COc1ccc(S(=O)(=O)NCC(=O)N(CC(=O)NCC2CCCO2)Cc2ccc(F)cc2)cc1 (stereo not drawn) | – | – | 17.4
32 | O=C(O)CC/C(=N/NC(=O)CNC(=O)Cc1ccc(Cl)cc1)c1ccccc1 | – | 13 µM [rising, partial curve] | 20.8
33 | COc1ccc(/C(O)=C/C(=O)C(=O)NNC(=O)C(O)(c2ccccc2)c2ccccc2)cc1 | – | 0.231 µM [falling, full curve, poor fit] | 21.4
34 | Cc1ccc(S(=O)(=O)/N=C(\Sc2ccccc2)c2ccccc2)cc1 | 4.11 µM [rising, single point] | 6.51 µM [rising, partial curve] | -8.17
35 | Cc1cc(C(=O)N2CCc3ccccc32)c2cc(F)ccc2n1 | – | 0.326 µM [rising, full curve, poor fit] | -16.5
36 | N#CCCN(C(=S)NC(=O)c1ccco1)c1ccccc1F | 0.82 µM [falling, full curve, poor fit] | 0.058 µM [falling, full curve, poor fit] | -21
37 | COc1ccc(C(=O)N2CCN(c3ccc(NC(=O)Cc4ccccc4)cc3)CC2)cc1 | 0.13 µM [rising, partial curve, poor fit] | 18.4 µM [rising, single point] | 10.4
38 | CC(NC(=O)CSc1nc(C2CC2)n(-c2ccccc2)n1)c1ccco1 (stereo not drawn) | – | – | -3.44
39 | Cn1c(N)c(C(=O)COC(=O)/C=C/c2cccc(Br)c2)c(=O)n(C)c1=O | – | – | 20.5
40 | CCOc1ccc(/C=C2\SC(=S)N(CC(=O)Nc3ccccn3)C2=O)cc1 | – | 20.6 µM [rising, partial curve] | 1.18

Row | SMILES | AC50 [1] | AC50 [2] | cell number change [%]
41 | CN(Cc1ccccc1F)C(=O)C1CCCN(C(=O)c2ccc(Cl)cc2)C1 (stereo not drawn) | – | – | 18.1
42 | COc1cc(/C=N/NC(=O)CSc2cc(C)c(Br)cc2C)ccc1O | – | 10.3 µM [rising, partial curve] | –
43 | CN1/C(=C\C(=O)c2cncc(Br)c2)C(C)(C)c2ccccc21 | – | 29.1 µM [falling, single point] | -39.9
44 | O=C(CN1CCN(c2ccccn2)CC1)Nc1ccc(F)cc1F | – | 32.6 µM [falling, single point] | 15.3
45 | O=C1CSC(=NC2CCCCC2)N1 | – | 0.92 µM [falling, full curve] | -15.6
46 | CCCOc1ccc(NC(=O)c2c(-c3ccccc3)noc2C)cc1 | 11.6 µM [rising, partial curve] | 0.58 µM [rising, partial curve] | 56
47 | CC(C)(C)c1ccc(CNc2ccc([N+](=O)[O-])cn2)cc1 | – | 32.6 µM [falling, single point] | -28.5
48 | O=C1CCCc2c1[nH]c1c(Br)cccc21 | 7.31 µM [rising, single point] | – | -4.87
49 | NC(=O)C1CCCN(C(=O)c2cccc(S(=O)(=O)N3CCCCCC3)c2)C1 (stereo not drawn) | 29.1 µM [falling, single point] | 0.13 µM [falling, full curve, poor fit] | -30.1
50 | Cc1cccc2c(N=Nc3ccc(S(=O)(=O)Nc4ccc(Cl)cc4)cc3[N+](=O)[O-])c(O)[nH]c12 | – | 1.03 µM [falling, single point] | 17.2
51 | Cc1ccc2cccc(NC(=S)NC(=O)c3ccn(C)n3)c2n1 | 16.4 µM [falling, single point] | 16.4 µM [falling, single point] | -63.8
52 | O=C1C=CN(Cc2ccccc2)CC1 | 32.6 µM [falling, single point] | – | -32.9
53 | Cc1nc2sccn2c1P(c1c(C)nc2sccn12)c1c(C)nc2sccn12 | – | – | -13.2
54 | Cc1noc(/C=C/c2ccco2)c1S(=O)(=O)N1CCC(C(=O)N(C)Cc2ccccc2)CC1 | – | 0.00517 µM [falling, full curve, poor fit] | -6.53
55 | Cc1cccc2cc(C3CC(c4ccco4)=NN3S(=O)(=O)c3ccccc3)c(Cl)nc12 (stereo not drawn) | – | – | 25.5
56 | CCOc1ccc(S(=O)(=O)N2CCN(C(=O)Cc3ccc(S(=O)(=O)N4CCOCC4)s3)CC2)cc1 | – | 23.1 µM [falling, single point] | -8.26
57 | OCCN1CCN(CCOc2ccccc2-c2ccccc2)CC1 | – | 2.31 µM [rising, single point] | -9.01
58 | Cc1ccc(NC(NC(=O)OCCn2c([N+](=O)[O-])cnc2C)C(Cl)(Cl)Cl)cc1 (stereo not drawn) | – | 0.0651 µM [rising, full curve, poor fit] | –
59 | COc1ccc(Cl)cc1NC(=O)C/C(C)=N/NC(=O)CCc1ccccc1 | – | 6.51 µM [falling, single point] | -9.52
60 | O=[N+]([O-])c1ccc(/C=[N+](\[O-])CCO)o1 | 29.1 µM [rising, single point] | 14.6 µM [rising, partial curve] | 94.4
